Source: PubChem BioAssay AID1671190 (National Center for Advancing Translational Sciences (NCATS), 2021)
Values joined by “and” are separate entries in the source; they are usually repeats but may differ in a detail not shown here. Equal entries are not always repeated. Out of some 580,000 compounds screened, about 6,100 (1.1%) were called active. This list was built around the results that the source calls inconclusive (neither active nor inactive); the mix of calls is not that of the screen. The call rests on the fitted dose curve; in most records, active means well fitted inhibition curve with a large enough effect; inconclusive means small, poorly fitted or top-dose-only effect, or another doubt; inactive means no such curve, though single readings can be large or run the other way. Potencies of inconclusive entries are doubtful fits and often do not repeat.
Potency means the concentration at half of the fitted maximal effect.

Protein sequences, listed by entry. Tags and fused reporters are not part of them.
UniProt P18054, whole entry, looked up: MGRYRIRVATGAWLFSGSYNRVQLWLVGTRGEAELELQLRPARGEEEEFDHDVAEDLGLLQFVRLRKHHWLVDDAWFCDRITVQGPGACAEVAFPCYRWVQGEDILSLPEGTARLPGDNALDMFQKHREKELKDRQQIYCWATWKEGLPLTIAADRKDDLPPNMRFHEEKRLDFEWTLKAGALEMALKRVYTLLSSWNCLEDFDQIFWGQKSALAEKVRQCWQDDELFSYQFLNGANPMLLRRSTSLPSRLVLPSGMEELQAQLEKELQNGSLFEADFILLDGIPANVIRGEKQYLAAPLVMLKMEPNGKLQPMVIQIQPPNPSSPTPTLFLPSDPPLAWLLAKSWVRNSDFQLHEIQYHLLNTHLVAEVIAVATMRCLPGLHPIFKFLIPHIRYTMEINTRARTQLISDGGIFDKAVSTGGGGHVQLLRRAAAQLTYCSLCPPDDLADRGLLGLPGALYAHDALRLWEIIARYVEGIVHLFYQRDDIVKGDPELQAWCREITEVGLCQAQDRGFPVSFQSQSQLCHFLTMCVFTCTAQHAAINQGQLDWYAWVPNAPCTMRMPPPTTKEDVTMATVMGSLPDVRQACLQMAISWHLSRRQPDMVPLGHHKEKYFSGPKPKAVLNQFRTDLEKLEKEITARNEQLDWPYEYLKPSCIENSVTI

What follows are compounds tested against Polyunsaturated fatty acid lipoxygenase ALOX12 (Homo sapiens) (UniProt P18054) (assay: Primary qHTS assay for inhibitors of human arachidonate 12S-lipoxygenase (ALOX12): Round 2). Details: purified 12hLO, xylenol orange hydroperoxide absorbance; series mostly up to 108 µM.
How it was run: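 Purified human 12hLO at 150 nM in 25 mM Hepes, 0.01% Triton X-100, pH 7.0, preincubated 15 min at room temperature with compound. Reaction started with 40 uM arachidonic acid, 30 min at room temperature. Hydroperoxide measured by Fe-xylenol orange, 573/405 nm absorbance ratio.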
In the case of `NS(=O)(=O)c1ccc(CCNCC2(O)CCNC2)cc1` (stereo not given), the Potency was “inactive”. For `CN(CC(=O)NC1CC(C)(C)NC(C)(C)C1)S(=O)(=O)c1cc(Cl)ccc1Cl`, the Potency was inconclusive: 112 µM [inhibitor, partial curve, poor fit]. In the case of `CCCc1cc(-c2[nH]ncc2-c2ccc(C(=O)OCC)o2)c(O)cc1O`, the Potency was inconclusive: 89.1 µM [inhibitor, single point]. In the case of `CCc1nnc(NC(=O)c2cc(S(=O)(=O)N(CC)CC)ccc2Cl)s1`, the Potency was “inactive”. In the case of `CC(C)Oc1cccc(-c2cc(C(=O)NC(=S)N(C)c3ccccc3C(=O)O)c3ccccc3n2)c1`, the Potency was inconclusive: 50.1 µM [inhibitor, partial curve]. For `COc1ccc(/C=N/NC(=O)CNC(=O)C2COc3ccccc3O2)cc1OC` (stereo not given), the Potency was “inactive”. `Cc1ccc(C#N)c(SCC(=O)Nc2nccs2)n1` was tested, and the Potency was “inactive”. In the case of `CC1Cc2c([nH]c3ccccc23)C2c3ccccc3CN12` (stereo not given), the Potency was inconclusive: 3.98 µM [inhibitor, full curve, poor fit]. With `C[C@H](CO)N1C[C@H](C)[C@@H](CN(C)Cc2ccncc2)OCCCC[C@H](C)Oc2ccc(NC(=O)CCCN(C)C)cc2C1=O` the Potency was inconclusive: 31.6 µM [inhibitor, partial curve, poor fit]. `CC1CN(C(=O)COc2ccc(Cl)cc2Cl)c2ccccc2NC1=O` (stereo not given) was tested, and the Potency was inconclusive: 79.4 µM [inhibitor, partial curve, poor fit]. In the case of `CC(C)CNC(=O)c1coc(=O)c(Br)c1`, the Potency was inconclusive: 2.24 µM [inhibitor, full curve, poor fit]. In the case of `CCOC(=O)C(=CNc1ccc(C)cc1C)C(=O)OCC`, the Potency was inconclusive: 5.62 µM [inhibitor, single point]. In the case of `CCCCCC(=O)Nc1cccc(C2=NOC3(C2)C[C@@H](C(N)=O)N(C(=O)CC(c2ccccc2)c2ccccc2)C3)c1` (stereo not given in full), the Potency was “inactive”. With `COC(=O)[C@@]1(Cc2ccc(F)cc2)[C@H]2c3cc(C(=O)N4CCCC4)n(Cc4cc(C)n(C)n4)c3C[C@H]2CN1C(=O)c1ccccc1` the Potency was “inactive”. With `O=C(CCn1cnc2ccccc2c1=O)NCc1ccccc1Cl` the Potency was “inactive”. `CN1CCN(CCCCOc2ccccc2C=O)CC1` was tested, and the Potency was inconclusive: 1.78 µM [inhibitor, full curve]. For `O=C(Cc1cccnc1)N1CCC(Oc2ccccc2-c2nc(C3CC3)no2)C1` (stereo not given), the Potency was “inactive”. `CC1Cc2ccccc2N1C(=S)NC(=O)c1cccc(Br)c1` (stereo not given) was tested, and the Potency was inconclusive: 56.2 µM [inhibitor, partial curve, poor fit]. For `Cc1ncsc1CCC(=O)N1CCC2(CCNCC2)CC1`, the Potency was active: 15.8 µM. `CCc1nn2c(=O)cc(COC(=O)COc3ccc(OC)cc3)nc2s1` was tested, and the Potency was “inactive”. For `Cc1nn(Cc2ccccc2)c(Cl)c1/C=N/NC(=O)c1cccnc1`, the Potency was “inactive”. For `O=S(=O)(NCC(c1cccs1)N1CCc2ccccc2C1)c1ccccc1` (stereo not given), the Potency was inconclusive: 56.2 µM [inhibitor, partial curve, poor fit]. For `COc1cc(NC(=O)CSCc2ccccc2)c(C(=O)O)cc1OC`, the Potency was inconclusive: 141 µM [inhibitor, partial curve, poor fit]. With `COc1ccc2oc(C(=O)OCC(=O)N(Cc3ccccc3)C(C)(C)C)c(C)c2c1` the Potency was inconclusive: 7.94 µM [inhibitor, full curve, poor fit]. In the case of `COc1ccc(-c2nnc(SCC(=O)NCCc3ccc(OC)c(OC)c3)nc2-c2ccc(OC)cc2)cc1`, the Potency was “inactive”. `COc1ccc(-c2cc(C(=O)N3CCOCC3)c3ccccc3n2)cc1OC` was tested, and the Potency was “inactive and inconclusive: 39.8 µM [inhibitor, partial curve]”. With `CC(=O)N1CCN(c2ccc(OCc3nn(C)c(C)c3-c3cccc4c(CCCOc5cc(C)c(Cl)c(C)c5)c(C(=O)O)n(Cc5cccnc5)c34)cc2)CC1` the Potency was inconclusive: 1.22 µM [inhibitor, partial curve, poor fit]. For `N#Cc1nc(-c2ccc(OCc3ccccc3)cc2)oc1NCCCN1CCOCC1`, the Potency was inconclusive: 100 µM [inhibitor, partial curve, poor fit]. For `CCn1c(SCC(=O)c2ccc(O)c(O)c2)nnc1-c1ccccc1`, the Potency was inconclusive: 2.51 µM [inhibitor, full curve, poor fit]. For `Cc1ccc(-c2nnc(Nc3cccc(Cl)c3)c3ccccc23)cc1S(=O)(=O)N1CCCCC1`, the Potency was “inactive”. `O=C1NCc2ccccc2CC12CCCN(Cc1cc(F)ccc1O)C2` (stereo not given) was tested, and the Potency was inconclusive: 25.1 µM [inhibitor, full curve]. `O=C(NC(=S)Nc1ccccn1)c1ccco1` was tested, and the Potency was inconclusive: 50.1 µM [inhibitor, partial curve]. For `COc1cccc(OCCNS(=O)(=O)c2ccccc2[N+](=O)[O-])c1`, the Potency was inconclusive: 112 µM [inhibitor, single point]. For `O=C(O)CCCC(=O)Nc1ccc(OCc2nc3ccccc3s2)cc1`, the Potency was inconclusive: 44.7 µM [inhibitor, partial curve]. `COCCNC(=O)[C@@H]1C[C@@H](O)CN1C1CCN(C(=O)c2ccc3c(c2)OCO3)CC1` was tested, and the Potency was “inactive”. For `COc1cc(C(C(=O)NC2CCCC2)N(Cc2ccco2)C(=O)c2snc(C(N)=O)c2N)cc(OC)c1OC` (stereo not given), the Potency was inconclusive: 44.7 µM [inhibitor, partial curve, poor fit]. For `CCN(CC(=O)NCc1ccc(Cl)cc1)C(=O)CSc1cccc(C(F)(F)F)c1`, the Potency was inconclusive: 56.2 µM [inhibitor, partial curve, poor fit]. In the case of `O=C(Nc1ccn(Cc2c(F)c(F)cc(F)c2F)n1)c1ccc(COc2ccc(Cl)cc2Cl)o1`, the Potency was “inactive”. With `Cc1cccc(C(=O)N/C(=C/c2ccco2)C(=O)O)c1` the Potency was inconclusive: 3.55 µM [inhibitor, full curve, poor fit]. In the case of `CN(c1ccc(C(=O)N2CCN(c3ccc(F)cc3)CC2)cc1)S(C)(=O)=O`, the Potency was “inactive”. With `O=C(NCc1ccc2c(c1)OCO2)c1ccc(CSCc2cccc(Cl)c2)o1` the Potency was inconclusive: 141 µM [inhibitor, partial curve, poor fit]. `COc1ccc(C(=O)Nc2cccc(-c3nc4cc(Cl)ccc4o3)c2)c(OC)c1` was tested, and the Potency was inconclusive: 50.1 µM [inhibitor, partial curve, poor fit]. With `COc1ccc(CCNC(=O)c2cc3cn(C(C)C)cc3s2)cc1OC` the Potency was inconclusive: 2.51 µM [inhibitor, full curve, poor fit]. `C=CCN=C1NC(c2cccc(Cl)c2)C(C(=O)OC)=C(C)N1Cc1cccc(C(F)(F)F)c1` (stereo not given) was tested, and the Potency was inconclusive: 44.7 µM [inhibitor, partial curve, poor fit]. `O[C@@H]1CC(CNCc2ccc(F)cc2)(COc2ccc(C(F)(F)F)cn2)C[C@@H]1O` (stereo not given in full) was tested, and the Potency was inconclusive: 17.8 µM [inhibitor, full curve]. In the case of `O=C(CCC1CCCC1)N1CCCCCC1CN1CCOCC1` (stereo not given), the Potency was inconclusive: 17.8 µM [inhibitor, full curve, poor fit]. `CCn1c(C)c(C(C)=O)c2cc(OCC(O)CN3CCOCC3)ccc21` (stereo not given) was tested, and the Potency was inconclusive: 5.62 µM [inhibitor, single point]. With `CC1=Nc2cc(C(=O)NCc3ccccc3Cl)ccc2Sc2c(C)ccc(C)c21` the Potency was “inactive”. With `N#CC(C(=O)Nc1ccccc1Cl)C(=O)c1cccc(Cl)c1` (stereo not given) the Potency was inconclusive: 112 µM [inhibitor, single point]. With `COc1ccc(C2C(C(C)=O)=C(O)C(=O)N2c2cccnc2)c(OC)c1` (stereo not given) the Potency was inconclusive: 100 µM [inhibitor, partial curve, poor fit]. In the case of `CC(C)c1cccc(NC(=O)Cc2c[nH]c3ccccc23)c1`, the Potency was inconclusive: 39.8 µM [inhibitor, partial curve, poor fit]. With `Cc1cccc(NC(=O)COC(=O)c2ccc3ccccc3n2)c1C` the Potency was inconclusive: 89.1 µM [inhibitor, single point]. `CC(C)=CCc1c(O)cc2c(c1O)C(=O)C[C@@H](c1ccccc1)O2` was tested, and the Potency was inconclusive: 15.8 µM [inhibitor, full curve]. In the case of `O=Cc1ccc(Sc2ccc(Cl)cc2)cc1`, the Potency was “inactive”. For `Cc1nc2c(-c3ccc(F)cc3)c(C)nn2c(C)c1CCC(=O)N1CCN(c2ccccc2)CC1`, the Potency was “inactive”. `CCCOC(=O)c1ccc(NC(=O)c2cccc(S(=O)(=O)N3CCN(C(C)=O)CC3)c2)cc1` was tested, and the Potency was inconclusive: 141 µM [inhibitor, single point]. With `O=C(COC(=O)c1cc[n+]([O-])cc1)Nc1ccc(SC(F)F)cc1` the Potency was inconclusive: 50.1 µM [inhibitor, partial curve, poor fit]. With `CCN(C(=O)Cn1nnc2sc3c(c2c1=O)CCC(C(C)(C)C)C3)c1cccc(C)c1` (stereo not given) the Potency was inconclusive: 100 µM [inhibitor, partial curve, poor fit]. In the case of `C/C=C/c1ccc(OCC(=O)N2CCN(S(=O)(=O)c3ccc(F)cc3)CC2)c(OC)c1`, the Potency was “inactive”. `Cc1c(OCc2nn[nH]n2)ccc2c3c(c(=O)oc12)CCCC3` was tested, and the Potency was “inactive”. In the case of `Cc1c(N=C2NN=C(c3c[nH]c4ccccc34)CS2)c(=O)n(-c2ccccc2)n1C`, the Potency was “inactive”. In the case of `Cc1cccc(CCNC(=O)CCS(=O)(=O)c2ccc(Br)cc2)c1`, the Potency was “inactive”. `CC(C)NC(=O)N1CCC2(CC1)CCN(C(=O)c1cc(C(F)(F)F)cc(C(F)(F)F)c1)CC2` was tested, and the Potency was inconclusive: 6.31 µM [inhibitor, single point]. With `C(=C\n1nnc2ccccc21)/c1ccc[nH]1` the Potency was “inactive”. For `CCc1ccc(CNC(=O)c2nn(-c3ccc(C)cc3)c(=O)c3c2c2ccccc2n3C)cc1`, the Potency was inconclusive: 0.224 µM [inhibitor, full curve, poor fit].
